Experiment [1] concerns the target T1, Endogenous folliculin (FLCN) (human (endogenous in 786-O, ACHN and HK-2)) (UniProt Q8NFG4).
T1 sequence: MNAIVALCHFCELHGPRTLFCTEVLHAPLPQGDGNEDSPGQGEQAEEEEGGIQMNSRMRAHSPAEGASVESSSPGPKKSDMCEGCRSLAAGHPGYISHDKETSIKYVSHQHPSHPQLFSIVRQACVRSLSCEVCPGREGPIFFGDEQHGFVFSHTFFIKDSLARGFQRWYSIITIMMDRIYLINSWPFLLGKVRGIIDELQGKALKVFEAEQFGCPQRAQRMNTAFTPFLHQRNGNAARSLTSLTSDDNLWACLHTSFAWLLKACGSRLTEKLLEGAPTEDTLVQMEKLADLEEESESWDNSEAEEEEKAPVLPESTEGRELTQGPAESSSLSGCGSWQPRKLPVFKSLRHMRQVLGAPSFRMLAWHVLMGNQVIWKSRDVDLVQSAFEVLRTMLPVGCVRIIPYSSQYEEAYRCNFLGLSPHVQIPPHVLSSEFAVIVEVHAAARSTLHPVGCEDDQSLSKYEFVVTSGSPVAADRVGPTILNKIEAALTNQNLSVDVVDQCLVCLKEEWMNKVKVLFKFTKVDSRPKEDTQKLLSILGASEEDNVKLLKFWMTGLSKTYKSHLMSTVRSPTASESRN
Nature of the experiment: co-IP; endogenous FLCN and HIF2α immunoprecipitated with anti-FLCN or anti-HIF2α antibody from 786-O, ACHN and HK-2 lysates; IgG as control; Western blot. For orientation: In western blotting, separated proteins are transferred to a membrane and probed.

Sequences of proteins named here, by UniProt entry; tags and fusion partners are left off.
UniProt Q99814: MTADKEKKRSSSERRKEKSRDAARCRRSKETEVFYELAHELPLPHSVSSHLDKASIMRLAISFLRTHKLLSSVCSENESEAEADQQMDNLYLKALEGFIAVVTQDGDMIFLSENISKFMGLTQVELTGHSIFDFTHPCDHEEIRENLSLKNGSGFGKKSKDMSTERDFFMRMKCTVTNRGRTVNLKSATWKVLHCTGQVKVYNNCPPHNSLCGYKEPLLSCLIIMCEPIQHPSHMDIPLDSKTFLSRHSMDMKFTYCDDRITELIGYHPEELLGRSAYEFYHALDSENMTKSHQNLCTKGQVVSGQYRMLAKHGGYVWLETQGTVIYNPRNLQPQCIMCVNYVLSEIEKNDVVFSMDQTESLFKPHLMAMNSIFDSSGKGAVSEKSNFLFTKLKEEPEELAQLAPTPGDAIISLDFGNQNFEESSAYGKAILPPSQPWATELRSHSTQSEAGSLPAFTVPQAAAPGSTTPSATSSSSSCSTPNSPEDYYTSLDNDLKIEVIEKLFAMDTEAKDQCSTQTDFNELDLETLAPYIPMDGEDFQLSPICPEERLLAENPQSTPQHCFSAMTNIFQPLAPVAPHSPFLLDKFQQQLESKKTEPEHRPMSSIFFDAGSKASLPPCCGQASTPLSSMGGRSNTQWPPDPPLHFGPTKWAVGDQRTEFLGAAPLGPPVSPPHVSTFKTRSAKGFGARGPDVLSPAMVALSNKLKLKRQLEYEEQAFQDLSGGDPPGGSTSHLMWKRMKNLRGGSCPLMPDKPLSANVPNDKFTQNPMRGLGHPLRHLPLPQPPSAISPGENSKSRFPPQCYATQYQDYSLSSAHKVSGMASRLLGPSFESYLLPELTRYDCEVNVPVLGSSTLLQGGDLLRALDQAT

The next experiment deals with T2, FLAG-FLCN (folliculin) (UniProt Q8NFG4).
T2 sequence: T1 sequence
Kind of experiment: co-IP; FLAG-FLCN and GFP-HIF2α in ACHN cells; each precipitated in turn, Western blot.

Results are given in words; binding and its absence hold for the method and conditions named. Binding seen in cells or lysates may run through a third protein. Some entries that bind do so weakly or less than the wild type. For some assays here: Where a sequence is shown, tags or fusion partners need not be part of it.

These results are taken from publication PMC7399043.

Consider “Endogenous HIF2α (from UniProt Q99814 1-870)”, for which, in experiment [1], the binding entry is “binds”.

With GFP-HIF2α (from UniProt Q99814 1-870), the binding entry in the experiment with FLAG-FLCN (folliculin) is recorded as “binds”.
